Results from patent US8609870B2, “Treating various disorders using TrkB agonists” (Emory University, priority 2008, dated 2013).
For at least one compound, name, drawing or mass did not settle the structure. Some entries share one result that the patent states for a list of compounds.

The chains behind the UniProt entries cited, without tags or fusion partners. Residues count along the entry.
UniProt Q16620, 32-430 limits assumed: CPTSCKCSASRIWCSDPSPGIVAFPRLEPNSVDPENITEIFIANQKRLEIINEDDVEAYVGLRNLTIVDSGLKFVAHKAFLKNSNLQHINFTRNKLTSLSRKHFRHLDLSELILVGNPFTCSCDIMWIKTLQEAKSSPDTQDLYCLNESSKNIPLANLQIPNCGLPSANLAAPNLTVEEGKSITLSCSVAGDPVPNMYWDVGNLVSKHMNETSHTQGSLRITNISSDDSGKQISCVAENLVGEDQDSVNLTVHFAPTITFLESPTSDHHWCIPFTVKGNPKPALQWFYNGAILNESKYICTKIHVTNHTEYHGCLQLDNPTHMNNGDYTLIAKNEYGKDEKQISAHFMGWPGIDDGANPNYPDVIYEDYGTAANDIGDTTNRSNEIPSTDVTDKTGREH
UniProt P15209, 32-821: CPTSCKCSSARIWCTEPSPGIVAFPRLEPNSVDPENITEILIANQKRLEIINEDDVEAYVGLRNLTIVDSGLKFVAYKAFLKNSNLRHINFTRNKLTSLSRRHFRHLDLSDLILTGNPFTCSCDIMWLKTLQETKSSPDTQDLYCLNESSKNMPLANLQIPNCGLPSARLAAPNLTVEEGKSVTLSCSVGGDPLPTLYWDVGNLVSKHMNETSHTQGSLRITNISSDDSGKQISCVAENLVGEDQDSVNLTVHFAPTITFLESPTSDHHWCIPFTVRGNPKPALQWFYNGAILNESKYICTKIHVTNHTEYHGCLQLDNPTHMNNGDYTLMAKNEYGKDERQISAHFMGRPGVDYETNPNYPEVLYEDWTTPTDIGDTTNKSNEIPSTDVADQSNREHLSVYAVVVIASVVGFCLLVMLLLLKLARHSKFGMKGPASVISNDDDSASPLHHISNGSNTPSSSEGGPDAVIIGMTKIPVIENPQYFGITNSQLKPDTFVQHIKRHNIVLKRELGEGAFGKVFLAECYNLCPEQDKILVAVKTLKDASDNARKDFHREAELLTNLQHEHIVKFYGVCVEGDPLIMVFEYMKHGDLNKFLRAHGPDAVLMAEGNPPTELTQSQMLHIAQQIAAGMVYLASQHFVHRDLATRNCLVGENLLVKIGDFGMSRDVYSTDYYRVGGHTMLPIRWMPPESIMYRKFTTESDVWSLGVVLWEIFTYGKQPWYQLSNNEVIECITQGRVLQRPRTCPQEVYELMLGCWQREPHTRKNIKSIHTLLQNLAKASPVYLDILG

Key:
[1] = molecular target: TrkB extra-cellular domain (ECD) (Homo sapiens, UniProt Q16620); assay: [3H]-deoxygedunin ligand binding assay, TrkB ECD (Scatchard plot); settings: Scatchard plot analysis
Protocol: Purified TrkB ECD or ICD proteins (10 μg/each) were incubated with different [^3H-deoxygedunin] in 1 ml binding buffer (0.05 M Na/K phosphate buffer (pH 7.1), 200 mM NaCl) (1 nM [^3H]deoxygedunin˜82300 cpm) at 4° C. for 10 minutes. After incubation, the reaction mixture was loaded on filter paper and washed with 3×5 ml Tris buffer (100 mM Tris, pH 7.1). The dried filter paper was put into a small vial and subjected to liquid scintillation counter analysis. The value of the dissociation constant and the number of sites were obtained from Scatchard plots by using the equation r/[L]free=n/Kd−r/Kd, where r is the ratio of the concentration of bound ligand to the total protein concentration and n is the number of binding sites.
To determine whether an identified active compound physically and directly binds to the TrkB receptor, in vitro binding assays can be conducted with purified TrkB extracellular domain (ECD) and intracellular domain (ICD) recombinant proteins. Purified TrkB ECD and ICD (10 μg of each) are incubated with different concentrations of ^3H-labeled identified active compound in 1 ml of binding buffer (0.05M Na/K phosphate buffer, pH 7.1, 200 mM NaCl) at 4° C. for 10 minutes. After the incubation, the reaction mixture is loaded on filter paper. […]

TrkB = molecular target: T1, TrkB (Mus musculus, UniProt P15209); assay: TrkB activation in mouse brain after i.p. or oral administration; assay type: in vivo; settings: C57BL/6J mice, sacrificed 2 to 4 hours after administration
T1 construct: Brain lysates were prepared and analyzed by immunoblotting; from tissue; host or cells: mouse brain
Protocol: Unless specifically described, brain tissues are fixed in 4% paraformaldehyde overnight followed by paraffin embedding. Sections of 5 μm are cut. For immunohistochemical staining, brain sections are deparaffinized in xylene and rehydrated in graded alcohols. Endogenous peroxidase activity are blocked by 3% hydrogen peroxide for 5 minutes and all slides are boiled in 10 mM sodium citrate buffer (pH 6.0) for 10 minutes. Phosphorylated Trk A, Trk A, phosphorylated Trk B, and Trk B are detected using specific antibodies and, e.g., a Zymed HistostainPlus AEC kit (Invitrogen; Carlsbad, Calif.). Slides then are counterstained with hematoxylin.
To assess whether an identified active compound provokes TrkB activation in the brain, mice are intraperitoneally injected with a dose of 5 mg/kg and analyzed at various time points. […] Further, whether the protein and mRNA levels of the neurotrophic receptors is altered after treatment with an identified active compound is measured.
Both Akt and Erk1/2 were robustly activated by these molecules as well). […] The minimal required drug concentration was about 100-250 nM (see FIG. 7, right panels). […] To assess whether deoxygedunin provokes TrkB activation in the brain, mice (i.p.) were injected with a dose of 5 mg/kg for various time points. […] Brain lysates were prepared and analyzed by immunoblotting (see FIG. 10).

## CC(=O)O[C@@H]1C[C@H]2C(C)(C)C(=O)C=C[C@]2(C)[C@H]2CC[C@]3(C)C(=CC(=O)O[C@H]3c3ccoc3)[C@@]21C [deoxygedunin]
[1]
  ratio of ligand to the receptor: 1:1
TrkB
  oral dosage activating TrkB in mouse brain: 1 to 5 mg/kg
